Data as given in patent US20140100222A1, “Beta2-ADRENOCEPTOR AGONIST FOR THE TREATMENT OF COUGH” (BOEHRINGER INGELHEIM INTERNATIONAL GMBH, priority 2012, published 2014).
Marks after values point to notes of the source that are not given here.

Key:
cough reflex = settings: inhaled therapy in asthma, COPD or IPF; therapeutic doses; cited from earlier work
[1] = test system: citric acid induced cough in OVA sensitised guinea pigs; assay: Anti-tussive activity: citric acid induced cough in OVA sensitised guinea pigs (whole body plethysmograph); assay type: in vivo, guinea pig; settings: first dose without side-effect displaying 70 to 80% efficacy
Description: Animals—Male albino Dunkin-Hartley guinea pigs (350-550 g; Charles River WIGA GmbH, Sulzfeld, Germany) were used. The animals were housed in groups of 6 in solid floor cages and allowed free access to water and standard food. The guinea pigs were kept in rooms maintained at a constant temperature (22° C.±2° C.) and humidity (60%±15%), with a 12 h light cycle. The experiments were approved by the ethical committee Regierungspräsidium Tübingen, Germany.
OVA asthma model—On days 1 and 2, the guinea pigs were immunised by subcutaneous injection of 0.5 ml per animal of a solution of ovalbumin (OVA) (40 μg/ml) and aluminium hydroxide [Al (OH)3]. […]
Cough recording—Two hours after i.t. application, the citric acid challenge was performed. […] During the challenge, airflow in the chamber was recorded by the Buxco system and analysed for the transient increase in airflow produced by cough, in which rapid inspiration is followed by rapid expiration. The system was able to distinguish coughs from other expiratory responses, and the number of coughs was counted.
Data analysis—Data from the treatment groups were compared with the vehicle group. Data are expressed as mean ±SEM of coughs produced by guinea pigs within each group during a 15 minutes citric acid aerosol exposure. […]

[2] = test system: acetylcholine induced bronchoconstriction in guinea pigs; assay: Bronchoprotection: acetylcholine induced bronchospasm in anaesthetised guinea pigs (Konzett-Rössler); assay type: in vivo, guinea pig; settings: for Bronchoconstriction (ml overflow): 2 h before acetylcholine 14 μg/kg i.v., mean
Description: Animal-Male and female Dunkin-Harley guinea pigs were obtained from the Experimental Animal Breeding Centre of Harlan Winkelmann (Germany). After fasting overnight, but with free access to drinking water, animals with body weight of 400-500 g are used. Anesthesia and preparation-The anesthesia was induced by intraperitoneal injection of 50 mg/kg pentobarbital. Anesthesia was prolonged by intravenous infusion of pentobarbital (15 mg/kg/h) via the jugular vein. A tracheal cannula was introduced after tracheotomy for artificial ventilation. The internal jugular vein was cannulated for acetylcholine injection. Instrumentation-Bronchospasm was recorded with a modified version of the method of Konzett-Röβler described by […] et al, 1997. […] Lung resistance was measured as ml of overflow and was recorded, amplified and saved under Notocord files (Notocord-hem, Notocord, France). Blood pressure and heart rate were monitored from a carotid artery in order to check the anesthesia and the variability of the preparation. Experimental protocol-2 hours before acetylcholine challenge, guinea pigs were given the test compound or its vehicle intra-tracheally under a slight isoflurane anesthesia. 30 minutes before acetylcholine challenge, lung resistance and blood pressure were measured under anesthesia. […] Data analysis-Data from the treatment groups were compared with the vehicle group. Data are expressed as mean ±SD of ml of overflow. […] Mean values were statistically analyzed by one-way analysis of variance (ANOVA) followed by the Dunnett's Multiple comparisons Test to evaluate significant differences between groups with p<0.05 being considered significant.

COc1ccc(CC(C)NCC(O)c2ccc(O)c(NC=O)c2)cc1 (stereo not drawn) [Formoterol]
effect on cough reflex (cough reflex): display anti-tussive effect
antitussive Fully Effective Dose (FED) [1]: 3 µg/kg
Bronchoconstriction (ml overflow) ([2]; 0.1 μg/kg i.t.): 26 mL
Bronchoprotection (%) ([2]; 0.1 μg/kg i.t., inhibition of acetylcholine bronchoconstriction): 29%
Bronchoconstriction (ml overflow) ([2]; 0.3 μg/kg i.t.): 14 mL
Bronchoprotection (%) ([2]; 0.3 μg/kg i.t., inhibition of acetylcholine bronchoconstriction): 62 * %
Bronchoconstriction (ml overflow) ([2]; 1 μg/kg i.t.): 9 mL
Bronchoprotection (%) ([2]; 1 μg/kg i.t., inhibition of acetylcholine bronchoconstriction): 78 * %
Bronchoconstriction (ml overflow) ([2]; 3 μg/kg i.t.): 4 mL
Bronchoprotection (%) ([2]; 3 μg/kg i.t., inhibition of acetylcholine bronchoconstriction): 89 * %
bronchoprotective FED ([2]; first dose without side-effect displaying 80 to 100% efficacy): 3 µg/kg
Bronchoprotection (%) ([2]; summary, 0.1 μg/kg): 29%
Bronchoprotection (%) ([2]; summary, 0.3 μg/kg): 62%
Bronchoprotection (%) ([2]; summary, 1 μg/kg): 78%
Bronchoprotection (%) ([2]; summary, 3 μg/kg): 89%
